Results reported in article doi:10.1101/2021.09.14.460315.
These are yes or no findings as the source states them, for the method shown. For some assays here: In cells and extracts the contact can be indirect. Some binding calls cover weakened binding; strength is not graded here. For some assays here: Tags and fused reporters may be left off the sequences shown. One block for each molecule: values may come before it.

Sequences of proteins named here, by UniProt entry; tags and fusion partners are left off. A change or cut given only in a name is not applied to a line headed by its entry.
UniProt Q9VAH9: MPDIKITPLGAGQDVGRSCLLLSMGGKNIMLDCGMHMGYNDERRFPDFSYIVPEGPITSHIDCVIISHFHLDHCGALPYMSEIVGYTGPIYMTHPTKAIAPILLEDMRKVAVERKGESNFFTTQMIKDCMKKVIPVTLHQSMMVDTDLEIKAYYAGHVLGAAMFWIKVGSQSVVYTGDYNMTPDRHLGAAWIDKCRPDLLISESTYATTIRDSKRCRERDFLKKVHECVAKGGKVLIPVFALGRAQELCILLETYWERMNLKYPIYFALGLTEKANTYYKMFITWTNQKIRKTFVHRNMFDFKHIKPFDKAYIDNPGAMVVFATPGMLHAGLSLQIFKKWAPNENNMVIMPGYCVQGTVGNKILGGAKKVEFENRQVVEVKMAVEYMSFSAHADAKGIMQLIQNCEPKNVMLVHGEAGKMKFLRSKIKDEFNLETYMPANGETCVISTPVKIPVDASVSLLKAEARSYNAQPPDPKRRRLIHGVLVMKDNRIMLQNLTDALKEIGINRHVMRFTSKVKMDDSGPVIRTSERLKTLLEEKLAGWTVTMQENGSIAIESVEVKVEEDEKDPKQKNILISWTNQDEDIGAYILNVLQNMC
UniProt Q9W1C5: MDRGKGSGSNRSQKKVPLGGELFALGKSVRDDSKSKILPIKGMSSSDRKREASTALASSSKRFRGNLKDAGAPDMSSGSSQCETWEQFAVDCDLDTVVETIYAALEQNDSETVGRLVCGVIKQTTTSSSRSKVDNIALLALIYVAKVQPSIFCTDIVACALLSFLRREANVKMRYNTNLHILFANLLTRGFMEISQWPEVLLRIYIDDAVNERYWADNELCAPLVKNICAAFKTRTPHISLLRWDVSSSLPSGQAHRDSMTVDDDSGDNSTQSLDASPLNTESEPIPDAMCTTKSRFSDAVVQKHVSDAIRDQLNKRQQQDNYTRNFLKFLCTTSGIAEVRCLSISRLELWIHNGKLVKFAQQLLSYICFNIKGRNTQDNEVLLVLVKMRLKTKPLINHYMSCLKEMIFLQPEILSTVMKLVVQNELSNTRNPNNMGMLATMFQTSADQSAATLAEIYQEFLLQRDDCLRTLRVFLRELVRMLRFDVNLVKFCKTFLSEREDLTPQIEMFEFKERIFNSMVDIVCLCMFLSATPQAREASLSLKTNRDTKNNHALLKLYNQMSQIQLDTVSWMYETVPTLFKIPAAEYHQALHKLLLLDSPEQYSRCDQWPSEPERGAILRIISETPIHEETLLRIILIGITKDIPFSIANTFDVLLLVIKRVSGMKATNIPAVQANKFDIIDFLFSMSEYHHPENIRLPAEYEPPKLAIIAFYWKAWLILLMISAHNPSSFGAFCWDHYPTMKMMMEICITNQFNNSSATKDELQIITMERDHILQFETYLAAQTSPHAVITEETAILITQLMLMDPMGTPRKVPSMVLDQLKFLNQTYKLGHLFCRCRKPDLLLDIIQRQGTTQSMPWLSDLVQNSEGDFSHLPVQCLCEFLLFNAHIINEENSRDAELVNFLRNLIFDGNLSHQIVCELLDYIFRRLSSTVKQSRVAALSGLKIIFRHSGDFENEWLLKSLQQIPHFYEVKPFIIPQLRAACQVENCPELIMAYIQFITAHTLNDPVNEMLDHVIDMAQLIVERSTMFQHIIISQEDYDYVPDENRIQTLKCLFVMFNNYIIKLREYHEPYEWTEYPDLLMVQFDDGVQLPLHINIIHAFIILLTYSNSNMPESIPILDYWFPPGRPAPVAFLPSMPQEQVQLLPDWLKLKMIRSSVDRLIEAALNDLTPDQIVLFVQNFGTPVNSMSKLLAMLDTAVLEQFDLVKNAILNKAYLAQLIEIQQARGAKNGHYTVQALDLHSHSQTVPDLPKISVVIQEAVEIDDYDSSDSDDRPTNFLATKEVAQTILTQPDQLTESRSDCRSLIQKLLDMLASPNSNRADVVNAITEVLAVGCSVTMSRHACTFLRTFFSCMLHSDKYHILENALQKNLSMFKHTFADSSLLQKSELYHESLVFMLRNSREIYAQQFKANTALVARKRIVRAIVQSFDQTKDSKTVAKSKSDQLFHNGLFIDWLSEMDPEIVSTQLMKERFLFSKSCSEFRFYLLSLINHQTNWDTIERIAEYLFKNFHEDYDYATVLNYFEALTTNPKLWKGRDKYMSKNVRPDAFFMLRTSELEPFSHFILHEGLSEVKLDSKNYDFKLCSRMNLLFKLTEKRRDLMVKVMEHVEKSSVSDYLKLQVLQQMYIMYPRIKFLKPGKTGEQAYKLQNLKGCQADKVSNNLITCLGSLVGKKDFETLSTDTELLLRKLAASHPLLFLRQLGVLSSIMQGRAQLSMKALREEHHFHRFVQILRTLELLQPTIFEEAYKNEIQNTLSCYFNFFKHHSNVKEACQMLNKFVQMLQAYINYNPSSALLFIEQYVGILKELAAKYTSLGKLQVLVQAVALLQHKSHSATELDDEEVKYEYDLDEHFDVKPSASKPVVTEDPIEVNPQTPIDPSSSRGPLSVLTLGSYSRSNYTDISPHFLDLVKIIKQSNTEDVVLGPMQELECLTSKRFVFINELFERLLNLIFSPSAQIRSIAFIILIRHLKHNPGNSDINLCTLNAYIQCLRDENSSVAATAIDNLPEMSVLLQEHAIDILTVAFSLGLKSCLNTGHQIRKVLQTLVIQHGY

Tests used:
[1] = biological target: FLAG-IntS11-WT (Drosophila) (UniProt Q9VAH9); test: co-IP
[2] = biological target: T1, Drosophila IntS9 (co-expressed in the IntS4-IntS9-IntS11 complex) (Drosophila) (UniProt Q95TS5); test: cryo-EM structure
T1 sequence: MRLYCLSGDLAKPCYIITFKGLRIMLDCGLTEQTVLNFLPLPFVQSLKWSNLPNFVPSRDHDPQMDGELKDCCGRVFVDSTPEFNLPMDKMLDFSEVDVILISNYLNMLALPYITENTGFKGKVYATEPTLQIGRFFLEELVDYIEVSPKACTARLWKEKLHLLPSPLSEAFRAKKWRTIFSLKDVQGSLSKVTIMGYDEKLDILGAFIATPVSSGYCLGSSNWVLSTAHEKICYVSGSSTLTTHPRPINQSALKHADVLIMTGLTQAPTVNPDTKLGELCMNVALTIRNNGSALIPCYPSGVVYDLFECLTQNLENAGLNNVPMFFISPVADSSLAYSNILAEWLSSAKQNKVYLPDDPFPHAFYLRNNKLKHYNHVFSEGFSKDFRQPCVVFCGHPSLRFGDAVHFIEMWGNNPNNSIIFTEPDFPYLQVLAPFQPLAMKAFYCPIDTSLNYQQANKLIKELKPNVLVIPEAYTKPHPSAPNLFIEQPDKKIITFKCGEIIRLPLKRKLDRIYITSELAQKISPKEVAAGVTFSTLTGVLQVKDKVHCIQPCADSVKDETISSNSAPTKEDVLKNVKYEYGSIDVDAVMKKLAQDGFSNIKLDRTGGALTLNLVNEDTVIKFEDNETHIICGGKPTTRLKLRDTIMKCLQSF

[3] = biological target: Drosophila IntS11 (co-expressed in the IntS4-IntS9-IntS11 complex) (Drosophila) (UniProt Q9VAH9); test: cryo-EM structure
[4] = biological target: FLAG-IntS11-K462E (Drosophila) (UniProt Q9VAH9); test: co-IP

binding [1]: binds
Molecule: IntS1 (endogenous, DL1 nuclear extract) (from UniProt Q9W1C5 1-2053)

binding [2]: binds
binding [3]: binds
B1: Drosophila IntS4 (N-terminal 6xHis-tagged, co-expressed in the IntS4-IntS9-IntS11 complex) (protein, UniProt Q9W3E1 1-1022)
chain: MALAIKKRVGTYVETVDGSPPVKKLRLQTLAADAKGGKSGKVGNVERKLTALNQLDAYVGNLPAGALVLPTGTPVASTGAPSTGVIGNPPAAATGAPPMTAANSRELLELLVKITDEISYEDVEMGELKEVASKIFQLYQLQERDSDTSIRVKLLELLSGLGCECATEQALTMIIDYFIFLLRKEVSQKVLAQGMMCLFRIGERRKHMLPISYKTQVAHLAKEQLRSGSAHTQKNAMLVIGRFATKMEGERHYVWKLAFYIDSQDSSVRAQALHALLTLGERGSQLPAVLYKRAVEAMKDDYECVRKEALQLVFMLGNRHPDYILPSDRQQEELRMIDAAFSKVCEALCDLSLQIRVLAAELLGGMTAVSREFLHQTLDKKLMSNLRRKRTAHERGARLVASGEWSSGKRWADDAPQEHLDAQSISIIASGACGALIHGLEDEFLEVRTAAVASMCKLALSRPDFAVTSLDFLVDMFNDEIEDVRLKAIYSLTAIAKHIVLREDQLEIMLGSLEDYSVDVREGLHLMLGACRVSTQTCLLMVVQKLLDVLAKYPQDRNSTYACMRKIGQKHPHLVMAVAVHLLYVHPFFETPERDVEDPAYLCVLILVFNAAEHLVPIISLLPTATHRHYAYLRDSMPNLVPQLPIEGASSASATHRIDSAMHQAGSSAEYLQMILSHIEEIFTMTDERLELLQTAQSNLQRLGSIDAGMYGTSNFLETFLAAQIQIEQMQRCASTQRSRVPLKESLAALIRNCLKLQHTFSGLNYGDILQVKQLRLRACALHLVLVVRDRSQSALGPCQMLLQTAGDISEFIKANTKDEEEKPPVVETDMPMKESVSRDAQPDSFTRQLLIKLDGISDPKPGRVFREILPLVQQAPPLALPPANDKIRRCVANILEPCPLQSQDNVIKVTAGLIAAVPFVAEIDNLLESQKADMRIKIKYPDQHMHTVVPKQSDFKPIMTEQGEHKTNVRLRTTILLSHSVWTESSLVEIQLCLAVRPGSELELCKPAKVLFAPKPVRRGI

binding [1]: binds
B2: IntS4 (endogenous, DL1 nuclear extract) (protein, UniProt Q9W3E1 1-1022)
chain: B1 chain

binding [4]: binds
binding [1]: binds
B3: IntS9 (endogenous, DL1 nuclear extract) (protein, UniProt Q95TS5 1-654)
chain: T1 sequence

binding [3]: binds
B4: Drosophila IntS9 (co-expressed in the IntS4-IntS9-IntS11 complex) (protein, UniProt Q95TS5 1-654)
chain: T1 sequence

binding [1]: binds
B5: IntS8 (endogenous, DL1 nuclear extract) (protein, UniProt A1ZAK1 1-1007)
chain: MDDPLKPKPVPLAAETVLWFEFLLDPHKITQHLQRPHPEPSAMELIVQFISMTPNTAQESVGTPGSDLQNLNQTPSNSGPIPGVVGGAPAPTTPTASGGVGMPHSPQRPAEKGLQLNRKQLALKILELKVATWLKWDLDALEKNLPVIMQLALLRDLCTISYGCSLSIPLPNDFDARISAAGNERAARFALTIYHRMLLRMQLIKEQALKAPRPQNTMYQTVDQLQQFLDTPTQPSIEYLQQLCASTKPFYIFHYDSFVPLRCDDIGNGQNYDVMHLITPQELRAQLHYELAQYYLYTKQYVLAREAAAACNTNLQAIPPQTTLYYCHIRPSELEGLLQACGISAEEQSLLEKFQQSLLNNYTDIVSILRMDNRRREIPFISRRQVELDIEGSISTGILKETVQLQLQVAALNVVRNIFEWGSIFGSVEYFEKYRELDCLPPLVEALQEMLPHCTFKEQAALKHFLIDCLLHQGGQSRQLLQTVRGFGLFSSDELQDIDEQMLQATPPVPTNSLASLSDWMCHSKMSRVDVGALERQLISCTNANTVRILLVKLCATAPGKPLWAINPSWDVPQPLKTLIMAMPVSFLQDFSYVLLGKARELATRGNYIDAVSMLSVLKSENQRQEMAANVQLMCKLITWEILHIQITQCLEEWHQKPLDLQSLGGRCKQCLGALQAGDSIVPRPDILESCAIMLLNLTEFPPLLYLDKRAGPLELPLAFAATFIEMEKMKGPKKVCRDAWELMLSMFLNVPKRGSSGVGGISSLQAFLQRIRHQSVFGLAISMIGKVHNILKDDPNHDLSCEYMQLWPTSINNPVSYSLRSVCETLQWLLSEALSYYPQTISWLKMKGDLDLAIGNNESAMRCYVNALVTGTDYCTMPLQRNVADDYVIRKMIRCAANLGCHMQATVLCQFLDEIDYGIVFKNLSEKSSNFTDAMDAYYSCIWDTTLLEFIVNLHAKRGEHSRKLEAISMMGTLELNANNNEEIKRESAMVRKSRFLRALAKQYLL
